Reference: patent US8765677B2 (priority 2009, dated 2014)
Where a SMILES comes first, the peptide text is derived from it.

Tested on: recombinant N-type (Cav2.2) VGCCs α1B-b/β3
Type: cell-based, rat

## CSCC[C@@H]1NC(=O)[C@H]([C@@H](C)O)NC(=O)[C@H](CCCCN)NC(=O)[C@H](CCCNC(=N)N)NC(=O)[C@@H]2CSSC[C@@H]3NC(=O)[C@H](CO)NC(=O)CNC(=O)[C@H](CCCNC(=N)N)NC(=O)[C@H](CSSC[C@H](N)C(=O)N[C@@H](CCCCN)C(=O)NCC(=O)N[C@@H](CCCCN)C(=O)NCC(=O)N[C@@H](C)C(=O)N[C@@H](CO)C(=O)N2)NC(=O)[C@H](CSSC[C@@H](C(N)=O)NC(=O)[C@H](CCCNC(=N)N)NC(=O)CNC(=O)[C@H](CO)NC(=O)[C@H](CCCNC(=N)N)NC3=O)NC(=O)[C@H](CC(=O)O)NC(=O)[C@H](Cc2ccc(O)cc2)NC1=O [CVIB, reference compound] (HELM PEPTIDE1{C.K.G.K.G.A.S.C.R.K.T.M.Y.D.C.C.R.G.S.C.R.S.G.R.C.[am]}$PEPTIDE1,PEPTIDE1,1:R3-16:R3|PEPTIDE1,PEPTIDE1,8:R3-20:R3|PEPTIDE1,PEPTIDE1,15:R3-25:R3$$$V2.0)
  Hill slope: 0.41±0.04
